From PMC4112624
No constants are given. Whether binding was seen depends on the method and setting. In cells and extracts the contact can be indirect. Some binding calls cover weakened binding; strength is not graded here.

Target: bZIP63 (UniProt B9DGI8)
Test: split reporter; BiFC with split eYFP (pUC-SPYNE / pUC-SPYCE), transiently coexpressed in onion epidermal cells by particle bombardment; confocal microscopy after 48 h on MS medium

binding: binds
B1: bZIP63 (protein, UniProt B9DGI8 1-314)
chain: MEKVFSDEEISGNHHWSVNGMTSLNRSASEWAFNRFIQESSAAADDGESTTACGVSVSSPPNVPVDSEEYRAFLKSKLNLACAAVAMKRGTFIKPQDTSGRSDNGGANESEQASLASSKATPMMSSAITSGSELSGDEEEADGETNMNPTNVKRVKRMLSNRESARRSRRRKQAHLSELETQVSQLRVENSKLMKGLTDVTQTFNDASVENRVLKANIETLRAKVKMAEETVKRLTGFNPMFHNMPQIVSTVSLPSETSNSPDTTSSQVTTPEIISSGNKGKALIGCKMNRTASMRRVESLEHLQKRIRSVGDQ
